{"sequences": {"note": "Amino acid sequences for entries named in this document (tags omitted). A change or cut given only in a name is not applied to a line headed by its entry.", "UniProt Q12857, whole entry, looked up": "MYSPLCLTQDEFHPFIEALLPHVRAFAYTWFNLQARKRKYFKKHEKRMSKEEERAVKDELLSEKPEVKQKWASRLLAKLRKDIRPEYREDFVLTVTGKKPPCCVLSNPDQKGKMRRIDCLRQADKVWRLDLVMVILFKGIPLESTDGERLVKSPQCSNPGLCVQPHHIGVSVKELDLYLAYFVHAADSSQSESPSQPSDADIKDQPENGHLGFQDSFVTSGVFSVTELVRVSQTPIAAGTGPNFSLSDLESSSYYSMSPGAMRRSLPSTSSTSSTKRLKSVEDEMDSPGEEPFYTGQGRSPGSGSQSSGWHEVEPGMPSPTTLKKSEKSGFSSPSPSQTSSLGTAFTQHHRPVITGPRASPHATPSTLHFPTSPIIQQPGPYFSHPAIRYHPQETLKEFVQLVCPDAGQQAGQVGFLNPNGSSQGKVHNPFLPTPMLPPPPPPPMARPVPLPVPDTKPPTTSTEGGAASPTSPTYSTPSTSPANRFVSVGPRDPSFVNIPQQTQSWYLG", "UniProt Q15155": "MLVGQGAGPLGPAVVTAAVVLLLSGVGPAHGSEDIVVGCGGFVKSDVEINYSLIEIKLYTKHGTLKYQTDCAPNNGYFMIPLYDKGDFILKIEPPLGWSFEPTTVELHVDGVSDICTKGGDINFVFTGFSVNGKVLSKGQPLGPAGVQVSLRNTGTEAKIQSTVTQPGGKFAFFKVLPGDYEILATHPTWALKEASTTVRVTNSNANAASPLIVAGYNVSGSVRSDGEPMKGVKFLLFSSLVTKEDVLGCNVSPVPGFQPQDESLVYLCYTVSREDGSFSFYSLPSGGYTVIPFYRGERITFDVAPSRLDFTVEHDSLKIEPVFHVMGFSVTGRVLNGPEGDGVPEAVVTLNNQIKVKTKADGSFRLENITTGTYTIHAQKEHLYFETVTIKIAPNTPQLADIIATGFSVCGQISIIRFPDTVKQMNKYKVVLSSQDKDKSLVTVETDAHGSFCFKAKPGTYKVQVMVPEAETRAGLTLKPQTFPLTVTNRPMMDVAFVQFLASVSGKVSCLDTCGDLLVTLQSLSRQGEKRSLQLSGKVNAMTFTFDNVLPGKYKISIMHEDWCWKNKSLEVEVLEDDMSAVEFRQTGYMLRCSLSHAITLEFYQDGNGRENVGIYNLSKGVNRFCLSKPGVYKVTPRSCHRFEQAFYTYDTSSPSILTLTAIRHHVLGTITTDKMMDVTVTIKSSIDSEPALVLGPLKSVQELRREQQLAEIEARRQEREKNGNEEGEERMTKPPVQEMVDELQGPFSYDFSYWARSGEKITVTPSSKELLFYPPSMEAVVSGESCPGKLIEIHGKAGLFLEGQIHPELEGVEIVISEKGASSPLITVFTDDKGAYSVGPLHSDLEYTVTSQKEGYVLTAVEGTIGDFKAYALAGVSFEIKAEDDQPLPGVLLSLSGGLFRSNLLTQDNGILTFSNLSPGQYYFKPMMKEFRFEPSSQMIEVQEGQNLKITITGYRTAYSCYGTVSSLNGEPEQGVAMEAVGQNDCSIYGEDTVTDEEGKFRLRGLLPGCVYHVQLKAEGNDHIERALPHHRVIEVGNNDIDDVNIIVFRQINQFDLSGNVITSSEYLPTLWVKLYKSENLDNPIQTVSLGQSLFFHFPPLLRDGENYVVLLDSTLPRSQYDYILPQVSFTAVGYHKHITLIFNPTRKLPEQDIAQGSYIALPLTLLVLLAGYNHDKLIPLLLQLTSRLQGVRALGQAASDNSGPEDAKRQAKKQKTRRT", "UniProt P30419": "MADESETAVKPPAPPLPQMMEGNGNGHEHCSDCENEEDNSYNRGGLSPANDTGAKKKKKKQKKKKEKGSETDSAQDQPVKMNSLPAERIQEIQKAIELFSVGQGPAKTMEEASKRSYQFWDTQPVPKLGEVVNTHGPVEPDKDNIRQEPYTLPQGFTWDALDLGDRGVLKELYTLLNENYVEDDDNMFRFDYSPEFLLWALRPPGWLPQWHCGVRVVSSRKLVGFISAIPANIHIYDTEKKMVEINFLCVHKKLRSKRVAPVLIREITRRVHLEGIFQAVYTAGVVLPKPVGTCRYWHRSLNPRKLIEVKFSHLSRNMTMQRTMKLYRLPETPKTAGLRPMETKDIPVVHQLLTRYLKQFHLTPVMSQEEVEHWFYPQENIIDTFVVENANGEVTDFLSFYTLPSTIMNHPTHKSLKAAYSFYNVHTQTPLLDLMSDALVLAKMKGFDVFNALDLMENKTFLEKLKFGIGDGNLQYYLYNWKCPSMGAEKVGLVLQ", "UniProt Q9H3P2, whole entry, looked up": "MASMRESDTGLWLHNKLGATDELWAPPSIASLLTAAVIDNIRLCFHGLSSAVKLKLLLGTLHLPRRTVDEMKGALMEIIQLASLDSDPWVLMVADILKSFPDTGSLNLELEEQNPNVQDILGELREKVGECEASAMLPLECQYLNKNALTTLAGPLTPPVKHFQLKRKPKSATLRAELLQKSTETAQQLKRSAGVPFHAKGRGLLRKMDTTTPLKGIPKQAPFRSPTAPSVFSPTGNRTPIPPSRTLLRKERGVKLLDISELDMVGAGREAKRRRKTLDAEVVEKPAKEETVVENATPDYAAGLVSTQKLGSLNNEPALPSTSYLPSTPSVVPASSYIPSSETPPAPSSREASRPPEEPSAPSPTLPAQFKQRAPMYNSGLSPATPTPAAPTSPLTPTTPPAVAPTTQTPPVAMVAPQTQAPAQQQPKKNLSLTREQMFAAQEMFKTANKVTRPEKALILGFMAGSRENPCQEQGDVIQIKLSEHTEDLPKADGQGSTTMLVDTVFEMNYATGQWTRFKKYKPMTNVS", "UniProt Q9Y639": "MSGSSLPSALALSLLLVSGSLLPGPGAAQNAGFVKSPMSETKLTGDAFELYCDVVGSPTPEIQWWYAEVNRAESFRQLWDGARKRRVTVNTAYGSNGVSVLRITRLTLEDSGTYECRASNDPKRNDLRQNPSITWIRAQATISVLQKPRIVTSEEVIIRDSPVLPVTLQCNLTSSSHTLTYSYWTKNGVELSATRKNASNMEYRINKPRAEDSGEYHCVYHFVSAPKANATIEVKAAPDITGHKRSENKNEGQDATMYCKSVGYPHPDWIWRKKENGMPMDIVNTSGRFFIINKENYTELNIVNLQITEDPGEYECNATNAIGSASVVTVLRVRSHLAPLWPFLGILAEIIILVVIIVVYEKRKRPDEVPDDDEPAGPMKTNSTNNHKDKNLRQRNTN", "UniProt Q9UHY1": "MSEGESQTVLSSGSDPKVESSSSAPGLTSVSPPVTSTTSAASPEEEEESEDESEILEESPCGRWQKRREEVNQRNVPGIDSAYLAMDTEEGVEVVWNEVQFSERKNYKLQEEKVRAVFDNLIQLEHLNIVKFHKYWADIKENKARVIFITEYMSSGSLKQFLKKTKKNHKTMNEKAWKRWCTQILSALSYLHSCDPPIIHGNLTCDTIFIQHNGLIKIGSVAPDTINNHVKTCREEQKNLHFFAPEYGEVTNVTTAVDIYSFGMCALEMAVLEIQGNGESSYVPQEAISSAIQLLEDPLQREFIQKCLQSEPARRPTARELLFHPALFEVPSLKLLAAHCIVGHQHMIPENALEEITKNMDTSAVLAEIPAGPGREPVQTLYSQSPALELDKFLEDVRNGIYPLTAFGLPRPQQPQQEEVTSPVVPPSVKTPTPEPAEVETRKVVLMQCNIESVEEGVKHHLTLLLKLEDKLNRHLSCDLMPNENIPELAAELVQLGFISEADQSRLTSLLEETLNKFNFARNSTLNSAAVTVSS", "UniProt Q8NCF5": "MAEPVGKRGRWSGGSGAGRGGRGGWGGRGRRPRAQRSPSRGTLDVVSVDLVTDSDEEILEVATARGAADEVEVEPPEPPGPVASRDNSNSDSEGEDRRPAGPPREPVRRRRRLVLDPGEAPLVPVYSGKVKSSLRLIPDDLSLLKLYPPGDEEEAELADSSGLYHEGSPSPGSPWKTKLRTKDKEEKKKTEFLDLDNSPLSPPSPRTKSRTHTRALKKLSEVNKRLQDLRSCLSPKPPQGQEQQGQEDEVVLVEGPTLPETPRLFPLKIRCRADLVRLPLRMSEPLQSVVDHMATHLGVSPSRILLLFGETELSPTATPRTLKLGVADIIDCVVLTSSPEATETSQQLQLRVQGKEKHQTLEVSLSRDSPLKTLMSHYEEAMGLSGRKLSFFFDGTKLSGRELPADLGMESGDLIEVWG", "UniProt O43847": "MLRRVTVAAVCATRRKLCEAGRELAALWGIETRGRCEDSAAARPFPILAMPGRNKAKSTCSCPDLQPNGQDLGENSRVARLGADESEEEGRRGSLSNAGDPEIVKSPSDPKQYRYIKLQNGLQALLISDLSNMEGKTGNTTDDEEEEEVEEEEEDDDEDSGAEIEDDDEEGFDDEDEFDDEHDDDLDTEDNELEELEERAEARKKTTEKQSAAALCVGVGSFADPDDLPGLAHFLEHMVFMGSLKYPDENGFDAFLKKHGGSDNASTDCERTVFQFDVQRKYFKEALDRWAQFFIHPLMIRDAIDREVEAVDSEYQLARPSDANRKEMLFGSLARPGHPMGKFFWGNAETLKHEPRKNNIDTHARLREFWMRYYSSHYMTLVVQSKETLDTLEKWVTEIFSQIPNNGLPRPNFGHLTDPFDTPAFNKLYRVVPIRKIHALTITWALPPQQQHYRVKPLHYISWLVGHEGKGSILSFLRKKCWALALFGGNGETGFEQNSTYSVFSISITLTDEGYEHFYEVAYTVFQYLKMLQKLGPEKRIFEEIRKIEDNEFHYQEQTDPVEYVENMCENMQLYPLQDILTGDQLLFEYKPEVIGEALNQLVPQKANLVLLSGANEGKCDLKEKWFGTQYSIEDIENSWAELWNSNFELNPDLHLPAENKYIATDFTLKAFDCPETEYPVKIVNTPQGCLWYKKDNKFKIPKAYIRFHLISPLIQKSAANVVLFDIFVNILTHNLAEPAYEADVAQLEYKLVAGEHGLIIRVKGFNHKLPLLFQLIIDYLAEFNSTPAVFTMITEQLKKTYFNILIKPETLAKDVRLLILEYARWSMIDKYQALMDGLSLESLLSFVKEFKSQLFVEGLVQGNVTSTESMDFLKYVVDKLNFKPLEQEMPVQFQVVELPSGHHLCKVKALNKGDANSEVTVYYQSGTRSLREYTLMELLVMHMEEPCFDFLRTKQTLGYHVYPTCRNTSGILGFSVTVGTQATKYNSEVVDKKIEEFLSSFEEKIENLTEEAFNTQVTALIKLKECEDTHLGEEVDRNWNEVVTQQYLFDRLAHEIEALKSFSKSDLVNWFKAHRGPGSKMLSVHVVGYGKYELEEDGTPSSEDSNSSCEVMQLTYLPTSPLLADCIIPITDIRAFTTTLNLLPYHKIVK", "UniProt O75414": "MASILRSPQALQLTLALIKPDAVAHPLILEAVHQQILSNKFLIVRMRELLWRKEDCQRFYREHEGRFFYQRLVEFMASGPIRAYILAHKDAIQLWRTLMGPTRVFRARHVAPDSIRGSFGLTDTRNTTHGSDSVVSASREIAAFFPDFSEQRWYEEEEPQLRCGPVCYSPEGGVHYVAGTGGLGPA", "UniProt Q86X76": "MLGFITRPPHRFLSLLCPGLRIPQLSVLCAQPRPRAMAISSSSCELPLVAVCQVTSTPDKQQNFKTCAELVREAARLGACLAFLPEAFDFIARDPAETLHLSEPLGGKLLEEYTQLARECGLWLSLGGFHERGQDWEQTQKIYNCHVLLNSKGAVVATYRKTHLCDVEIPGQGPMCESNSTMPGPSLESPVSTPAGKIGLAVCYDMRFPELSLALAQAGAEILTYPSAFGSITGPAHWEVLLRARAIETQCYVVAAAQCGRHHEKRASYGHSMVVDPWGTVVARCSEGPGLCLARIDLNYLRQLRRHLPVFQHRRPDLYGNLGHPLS", "UniProt P40261": "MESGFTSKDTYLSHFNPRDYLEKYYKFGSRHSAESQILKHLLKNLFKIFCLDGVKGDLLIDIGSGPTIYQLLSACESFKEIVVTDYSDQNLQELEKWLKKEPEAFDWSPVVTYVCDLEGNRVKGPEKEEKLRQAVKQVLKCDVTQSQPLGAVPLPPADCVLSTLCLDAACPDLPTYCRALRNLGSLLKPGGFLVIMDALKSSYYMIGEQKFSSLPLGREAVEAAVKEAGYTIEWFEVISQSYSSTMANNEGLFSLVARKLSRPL", "UniProt O75323": "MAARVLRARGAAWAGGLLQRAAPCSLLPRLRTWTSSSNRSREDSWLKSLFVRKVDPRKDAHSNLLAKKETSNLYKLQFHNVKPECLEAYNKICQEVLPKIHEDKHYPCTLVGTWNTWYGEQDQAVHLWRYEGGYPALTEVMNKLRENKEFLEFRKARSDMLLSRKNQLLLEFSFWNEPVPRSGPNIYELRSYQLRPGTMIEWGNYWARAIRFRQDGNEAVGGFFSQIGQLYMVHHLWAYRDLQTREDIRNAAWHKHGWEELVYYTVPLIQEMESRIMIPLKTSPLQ"}, "source": "the supplement of paper PMC10849652", "note": "The other results are listed elsewhere or left out."}
{"compound": "C1=CC=C(C=C1)[C@H](COC2=CC3=C(C=C2)NC(=O)N3)NC(=O)C4=CC=CN(C4=O)CC5=CC(=C(C=C5)F)F", "assay": "log2 fold change, soluble protein after heating vs DMSO (PISA); higher = thermal stabilisation; K562 cells, 10 uM, 30 min; active = over 0.2 and 3.5 SD of the protein, either way, in both replicates (recomputed)", "procedure,_shortened": "(§1)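 K562 cells at 2×10^6 cells/mL were exposed to 10 μM compound for 30 min, then aliquots were heated for 3 min across 48°C-58°C, pooled, and extracted in PBS containing 0.5% NP-40 at 4°C. The supernatant after 21,000xg for 90 min was taken as soluble protein and measured by TMTpro 16plex LC-MS/MS with channel sums equalised. Thermal stability is reported relative to control samples, with values from duplicates. Fold changes are given on a log2 scale.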"}
{"target": "NFIA isoform 4 (UniProt Q12857)", "log2 fold change": "inactive: 0.013"}
{"target": "NOP56 (UniProt O00567)", "log2 fold change": "inactive: 0.045"}
{"target": "NFIC (UniProt P08651)", "log2 fold change": "inactive: 0.042"}
{"target": "NR2F6 (UniProt P10588)", "log2 fold change": "inactive: -0.032"}
{"target": "NSD3 (UniProt Q9BZ95)", "log2 fold change": "inactive: -0.097"}
{"target": "NOA1 (UniProt Q8NC60)", "log2 fold change": "inactive: -0.031"}
{"target": "NIPSNAP3B (UniProt Q9BS92)", "log2 fold change": "inactive: 0.045"}
{"target": "NHLRC2 (UniProt Q8NBF2)", "log2 fold change": "inactive: -0.027"}
{"target": "NOMO1 (UniProt Q15155)", "log2 fold change": "inactive: -0.133"}
{"target": "NOLC1 isoform 2 (UniProt Q14978)", "log2 fold change": "inactive: 0"}
{"target": "NMT1 (UniProt P30419)", "log2 fold change": "inactive: 0"}
{"target": "NEU1 (UniProt Q99519)", "log2 fold change": "inactive: -0.116"}
{"target": "NELFA (UniProt Q9H3P2)", "log2 fold change": "inactive: -0.016"}
{"target": "NIBAN1 (UniProt Q9BZQ8)", "log2 fold change": "inactive: -0.017"}
{"target": "NRF1 isoform 4 (UniProt Q16656)", "log2 fold change": "inactive: -0.045"}
{"target": "NRAS (UniProt P01111)", "log2 fold change": "inactive: -0.001"}
{"target": "NISCH (UniProt Q9Y2I1)", "log2 fold change": "inactive: 0.044"}
{"target": "NPC1 (UniProt O15118)", "log2 fold change": "inactive: -0.034"}
{"target": "NPTN (UniProt Q9Y639)", "log2 fold change": "inactive: -0.004"}
{"target": "NFATC4 isoform 2 (UniProt Q14934)", "log2 fold change": "inactive: -0.062"}
{"target": "NRBP1 (UniProt Q9UHY1)", "log2 fold change": "inactive: 0.055"}
{"target": "NES (UniProt P48681)", "log2 fold change": "inactive: -0.368"}
{"target": "NSFL1C isoform 5 (UniProt Q9UNZ2)", "log2 fold change": "inactive: -0.005"}
{"target": "NMRAL1 (UniProt Q9HBL8)", "log2 fold change": "inactive: -0.12"}
{"target": "NFATC2IP (UniProt Q8NCF5)", "log2 fold change": "inactive: -0.051"}
{"target": "NRDC isoform 2 (UniProt O43847)", "log2 fold change": "inactive: -0.058"}
{"target": "NOC2L (UniProt Q9Y3T9)", "log2 fold change": "inactive: -0.002"}
{"target": "NEK9 (UniProt Q8TD19)", "log2 fold change": "inactive: -0.012"}
{"target": "NFXL1 (UniProt Q6ZNB6)", "log2 fold change": "inactive: -0.023"}
{"target": "NME6 (UniProt O75414)", "log2 fold change": "inactive: 0.033"}
{"target": "NIPA2 (UniProt Q8N8Q9)", "log2 fold change": "inactive: -0.003"}
{"target": "NEMF (UniProt O60524)", "log2 fold change": "inactive: 0.02"}
{"target": "NFS1 (UniProt Q9Y697)", "log2 fold change": "inactive: 0.008"}
{"target": "NIT1 (UniProt Q86X76)", "log2 fold change": "inactive: 0.029"}
{"target": "NF2 (UniProt P35240)", "log2 fold change": "inactive: -0.01"}
{"target": "NNMT (UniProt P40261)", "log2 fold change": "inactive: 0.021"}
{"target": "NIPSNAP2 (UniProt O75323)", "log2 fold change": "inactive: -0.038"}
{"compound": "CC1=C(SC2=C1C(=N[C@H](C3=NN=C(N32)C)CC(=O)N)C4=CC=C(C=C4)Cl)C", "assay": "log2 fold change, soluble protein after heating vs DMSO (PISA); higher = thermal stabilisation; K562 cells, 10 uM, 30 min; active = over 0.2 and 3.5 SD of the protein, either way, in both replicates (recomputed)", "procedure,_shortened": "as §1"}
{"target": "NFIA isoform 4 (UniProt Q12857)", "log2 fold change": "inactive: -0.012"}
{"target": "NOP56 (UniProt O00567)", "log2 fold change": "inactive: -0.289"}
{"target": "NFIC (UniProt P08651)", "log2 fold change": "inactive: 0.05"}
{"target": "NR2F6 (UniProt P10588)", "log2 fold change": "inactive: 0.025"}
{"target": "NSD3 (UniProt Q9BZ95)", "log2 fold change": "inactive: 0.201"}
{"target": "NOA1 (UniProt Q8NC60)", "log2 fold change": "inactive: 0.101"}
{"target": "NIPSNAP3B (UniProt Q9BS92)", "log2 fold change": "inactive: -0.031"}
{"target": "NHLRC2 (UniProt Q8NBF2)", "log2 fold change": "inactive: 0.038"}
{"target": "NOMO1 (UniProt Q15155)", "log2 fold change": "inactive: -0.406"}
{"target": "NOLC1 isoform 2 (UniProt Q14978)", "log2 fold change": "inactive: -0.029"}
{"target": "NMT1 (UniProt P30419)", "log2 fold change": "inactive: 0.032"}
{"target": "NEU1 (UniProt Q99519)", "log2 fold change": "inactive: 0.004"}
{"target": "NELFA (UniProt Q9H3P2)", "log2 fold change": "inactive: 0.213"}
{"target": "NIBAN1 (UniProt Q9BZQ8)", "log2 fold change": "inactive: 0.015"}
{"target": "NRF1 isoform 4 (UniProt Q16656)", "log2 fold change": "inactive: 0.001"}
{"target": "NRAS (UniProt P01111)", "log2 fold change": "inactive: 0.082"}
{"target": "NISCH (UniProt Q9Y2I1)", "log2 fold change": "inactive: -0.02"}
{"target": "NPC1 (UniProt O15118)", "log2 fold change": "inactive: -0.038"}
{"target": "NPTN (UniProt Q9Y639)", "log2 fold change": "inactive: 0.023"}
{"target": "NFATC4 isoform 2 (UniProt Q14934)", "log2 fold change": "inactive: 0.107"}
{"target": "NRBP1 (UniProt Q9UHY1)", "log2 fold change": "inactive: 0.027"}
{"target": "NES (UniProt P48681)", "log2 fold change": "inactive: -0.234"}
{"target": "NSFL1C isoform 5 (UniProt Q9UNZ2)", "log2 fold change": "inactive: 0.073"}
{"target": "NMRAL1 (UniProt Q9HBL8)", "log2 fold change": "inactive: -0.017"}
{"target": "NFATC2IP (UniProt Q8NCF5)", "log2 fold change": "inactive: 0.18"}
{"target": "NRDC isoform 2 (UniProt O43847)", "log2 fold change": "inactive: 0.04"}
{"target": "NOC2L (UniProt Q9Y3T9)", "log2 fold change": "inactive: 0.037"}
{"target": "NEK9 (UniProt Q8TD19)", "log2 fold change": "inactive: 0.068"}
{"target": "NFXL1 (UniProt Q6ZNB6)", "log2 fold change": "inactive: -0.03"}
{"target": "NME6 (UniProt O75414)", "log2 fold change": "inactive: 0.035"}
{"target": "NIPA2 (UniProt Q8N8Q9)", "log2 fold change": "inactive: -0.017"}
{"target": "NEMF (UniProt O60524)", "log2 fold change": "inactive: -0.226"}
{"target": "NFS1 (UniProt Q9Y697)", "log2 fold change": "inactive: 0.076"}
{"target": "NIT1 (UniProt Q86X76)", "log2 fold change": "inactive: 0.01"}
{"target": "NF2 (UniProt P35240)", "log2 fold change": "inactive: 0.02"}
{"target": "NNMT (UniProt P40261)", "log2 fold change": "inactive: 0.051"}
{"target": "NIPSNAP2 (UniProt O75323)", "log2 fold change": "inactive: 0.008"}
